These are yes or no findings as the source states them, for the method shown. Binding seen in cells or lysates may run through a third protein. Binding calls can cover weak binding; strength is not graded here.
Key:
[1] = target: Flag-TRAF3IP2 (UniProt O43734); assay: co-IP; UOK109 cells transfected with Flag-TRAF3IP2, HA-NICD1 and V5-NECD1; IP with anti-Flag antibody; western blot
[2] = target: TS domain of DNMT1 (truncated DNMT1) (UniProt P26358); assay: co-IP; HEK 293T cells transfected with DNMT1 truncations; western blot

Amino acid sequences for entries named in this document (tags omitted). A change or cut given only in a name is not applied to a line headed by its entry.
UniProt O43734: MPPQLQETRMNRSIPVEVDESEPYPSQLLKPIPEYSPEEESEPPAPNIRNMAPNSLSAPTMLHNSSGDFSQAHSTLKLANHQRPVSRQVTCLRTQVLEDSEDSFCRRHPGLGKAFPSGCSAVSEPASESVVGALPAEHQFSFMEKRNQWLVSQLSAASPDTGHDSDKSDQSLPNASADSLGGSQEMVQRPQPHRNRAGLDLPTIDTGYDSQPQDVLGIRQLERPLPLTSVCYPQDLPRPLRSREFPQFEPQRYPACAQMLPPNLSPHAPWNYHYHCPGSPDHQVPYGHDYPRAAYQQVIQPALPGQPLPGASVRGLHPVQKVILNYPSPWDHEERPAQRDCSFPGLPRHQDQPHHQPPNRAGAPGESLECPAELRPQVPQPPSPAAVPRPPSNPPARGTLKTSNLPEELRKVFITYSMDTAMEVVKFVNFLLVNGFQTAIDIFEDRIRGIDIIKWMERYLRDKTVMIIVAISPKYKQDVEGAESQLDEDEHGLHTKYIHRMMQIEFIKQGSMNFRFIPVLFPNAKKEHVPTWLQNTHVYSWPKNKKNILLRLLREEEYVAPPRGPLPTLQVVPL
UniProt P26358: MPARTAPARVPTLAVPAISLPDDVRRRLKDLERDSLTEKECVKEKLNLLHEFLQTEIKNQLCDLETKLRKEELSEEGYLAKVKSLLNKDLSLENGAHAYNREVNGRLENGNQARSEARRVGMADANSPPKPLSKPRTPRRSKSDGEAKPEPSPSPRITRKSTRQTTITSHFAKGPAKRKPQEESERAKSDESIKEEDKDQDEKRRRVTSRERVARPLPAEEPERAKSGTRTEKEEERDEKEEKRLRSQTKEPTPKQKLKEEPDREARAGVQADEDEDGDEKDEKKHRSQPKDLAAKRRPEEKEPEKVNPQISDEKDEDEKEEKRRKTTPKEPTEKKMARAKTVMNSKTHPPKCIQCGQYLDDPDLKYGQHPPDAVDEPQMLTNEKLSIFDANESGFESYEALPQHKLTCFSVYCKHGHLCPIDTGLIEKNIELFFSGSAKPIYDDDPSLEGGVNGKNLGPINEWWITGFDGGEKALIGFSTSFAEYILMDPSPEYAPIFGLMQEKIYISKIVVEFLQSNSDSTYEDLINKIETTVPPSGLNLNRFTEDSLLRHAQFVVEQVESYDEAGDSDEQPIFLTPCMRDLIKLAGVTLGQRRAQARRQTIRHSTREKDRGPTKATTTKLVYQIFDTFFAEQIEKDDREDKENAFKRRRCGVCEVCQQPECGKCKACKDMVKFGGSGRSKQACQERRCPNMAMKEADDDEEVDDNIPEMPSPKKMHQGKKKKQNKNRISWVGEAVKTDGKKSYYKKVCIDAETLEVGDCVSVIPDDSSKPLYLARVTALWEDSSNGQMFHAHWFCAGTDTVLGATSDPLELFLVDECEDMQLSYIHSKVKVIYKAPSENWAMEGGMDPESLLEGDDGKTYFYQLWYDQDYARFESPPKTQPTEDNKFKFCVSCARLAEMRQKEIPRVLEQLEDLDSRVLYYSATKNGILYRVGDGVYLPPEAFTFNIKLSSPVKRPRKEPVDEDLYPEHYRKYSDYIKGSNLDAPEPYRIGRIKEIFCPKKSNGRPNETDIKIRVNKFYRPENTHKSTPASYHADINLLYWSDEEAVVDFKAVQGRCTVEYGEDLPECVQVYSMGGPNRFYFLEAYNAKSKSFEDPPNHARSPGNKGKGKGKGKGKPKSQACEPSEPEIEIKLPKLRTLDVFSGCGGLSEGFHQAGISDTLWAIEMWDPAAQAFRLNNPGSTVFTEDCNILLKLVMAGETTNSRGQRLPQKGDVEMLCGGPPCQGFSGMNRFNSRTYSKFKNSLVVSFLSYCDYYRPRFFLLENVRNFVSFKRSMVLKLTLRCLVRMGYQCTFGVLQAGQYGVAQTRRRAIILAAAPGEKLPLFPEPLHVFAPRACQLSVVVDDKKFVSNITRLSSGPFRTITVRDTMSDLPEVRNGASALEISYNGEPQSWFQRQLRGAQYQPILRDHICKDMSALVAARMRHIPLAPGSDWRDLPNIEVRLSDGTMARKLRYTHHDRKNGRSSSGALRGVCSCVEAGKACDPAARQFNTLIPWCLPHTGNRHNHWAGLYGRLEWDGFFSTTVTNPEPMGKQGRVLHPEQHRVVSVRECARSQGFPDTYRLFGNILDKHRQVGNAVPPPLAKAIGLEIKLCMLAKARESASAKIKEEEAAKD

binding [1] | binding [2] | Substance
binds | – | HA-NICD1 (intracellular domain of NOTCH1) (from UniProt P46531) (domain or fragment)
– | binds | HNRNPK (partner of the DNMT1 and SETDB1 truncations in HEK293T) (from UniProt P61978 1-463)

Reference: PMC9331078
